Measured values as given in publication PMC9883236.
Results are given in words; binding and its absence hold for the method and conditions named. Binding seen in cells or lysates may run through a third protein. Some entries that bind do so weakly or less than the wild type. Each block holds one substance with its values, some of them ahead of it.

Sequences of proteins named here, by UniProt entry; tags and fusion partners are left off. A change or cut given only in a name is not applied to a line headed by its entry.
UniProt O94874: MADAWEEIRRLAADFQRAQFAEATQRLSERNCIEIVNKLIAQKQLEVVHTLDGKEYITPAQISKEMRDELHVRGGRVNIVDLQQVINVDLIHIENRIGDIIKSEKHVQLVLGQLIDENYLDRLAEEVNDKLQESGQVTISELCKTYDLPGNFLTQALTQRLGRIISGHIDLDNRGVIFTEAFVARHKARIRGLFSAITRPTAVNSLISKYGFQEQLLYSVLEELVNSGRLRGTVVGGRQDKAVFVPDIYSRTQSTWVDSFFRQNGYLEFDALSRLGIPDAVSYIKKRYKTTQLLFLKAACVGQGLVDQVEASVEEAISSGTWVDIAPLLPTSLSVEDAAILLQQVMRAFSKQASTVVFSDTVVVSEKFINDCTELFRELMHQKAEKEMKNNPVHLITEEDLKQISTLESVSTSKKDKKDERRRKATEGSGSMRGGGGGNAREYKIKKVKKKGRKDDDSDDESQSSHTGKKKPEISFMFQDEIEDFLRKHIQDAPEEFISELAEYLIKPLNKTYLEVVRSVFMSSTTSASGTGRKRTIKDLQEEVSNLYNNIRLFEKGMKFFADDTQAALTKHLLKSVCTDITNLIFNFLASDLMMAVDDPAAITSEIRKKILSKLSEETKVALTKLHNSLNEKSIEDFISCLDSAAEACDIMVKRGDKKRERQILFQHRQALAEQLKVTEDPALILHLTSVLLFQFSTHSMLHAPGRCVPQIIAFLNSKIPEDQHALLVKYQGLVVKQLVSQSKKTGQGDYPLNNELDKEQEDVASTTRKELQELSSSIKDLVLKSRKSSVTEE
UniProt Q86WV6: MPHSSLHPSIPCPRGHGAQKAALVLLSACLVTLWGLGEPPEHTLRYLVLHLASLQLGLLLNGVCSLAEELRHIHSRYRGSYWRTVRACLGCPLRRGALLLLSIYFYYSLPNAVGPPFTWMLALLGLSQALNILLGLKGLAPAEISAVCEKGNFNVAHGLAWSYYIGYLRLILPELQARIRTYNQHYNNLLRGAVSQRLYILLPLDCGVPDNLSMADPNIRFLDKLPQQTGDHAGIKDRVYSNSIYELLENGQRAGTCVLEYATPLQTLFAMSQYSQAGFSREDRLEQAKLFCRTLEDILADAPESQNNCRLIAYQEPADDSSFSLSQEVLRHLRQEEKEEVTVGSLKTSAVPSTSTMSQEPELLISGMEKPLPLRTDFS
UniProt Q99942: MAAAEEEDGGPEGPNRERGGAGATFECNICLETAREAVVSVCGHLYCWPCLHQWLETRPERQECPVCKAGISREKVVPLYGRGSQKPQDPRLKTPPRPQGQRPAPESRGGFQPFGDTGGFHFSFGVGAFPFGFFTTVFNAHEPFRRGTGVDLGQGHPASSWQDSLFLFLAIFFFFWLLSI

What was measured:
[1] = molecular target: V5-tagged UFL1 (UFM1-specific ligase 1), full length (UniProt O94874); assay: co-IP
STING-Myc = STING-Myc (UniProt Q86WV6); assay: co-IP; 293T cells cotransfected with TRIM29, RNF5 or TRIM30a and STING with varying doses of UFL1; co-immunoprecipitation, immunoblot
[2] = molecular target: V5-tagged UFL1 (UFM1-specific ligase 1), full length (UniProt O94874); assay: co-IP; HEK293T cells transfected with full-length or truncated STING and UFL1; UFL1 immunoprecipitation, immunoblot

binding [1]: binds
Substance: Flag-tagged STING (stimulator of interferon genes) (from UniProt Q86WV6 1-379)

binding (STING-Myc): binds
Substance: RNF5 (ring finger 5) (from UniProt Q99942 1-180) (enzyme)

binding [2]: binds
Substance: STING, full length (FL), as used with the truncation mutants of Fig. 4I and 4J (from UniProt Q86WV6 1-379)
